2 molecules from paper PMC6868891 can be followed below.

No constants are given. Whether binding was seen depends on the method and setting. Binding seen in cells or lysates may run through a third protein. Some binding calls cover weakened binding; strength is not graded here. Sequences can lack the tags named with a protein.

Assay [1] has as its target T1, REC8-EGFP (UniProt O95072).
T1 sequence: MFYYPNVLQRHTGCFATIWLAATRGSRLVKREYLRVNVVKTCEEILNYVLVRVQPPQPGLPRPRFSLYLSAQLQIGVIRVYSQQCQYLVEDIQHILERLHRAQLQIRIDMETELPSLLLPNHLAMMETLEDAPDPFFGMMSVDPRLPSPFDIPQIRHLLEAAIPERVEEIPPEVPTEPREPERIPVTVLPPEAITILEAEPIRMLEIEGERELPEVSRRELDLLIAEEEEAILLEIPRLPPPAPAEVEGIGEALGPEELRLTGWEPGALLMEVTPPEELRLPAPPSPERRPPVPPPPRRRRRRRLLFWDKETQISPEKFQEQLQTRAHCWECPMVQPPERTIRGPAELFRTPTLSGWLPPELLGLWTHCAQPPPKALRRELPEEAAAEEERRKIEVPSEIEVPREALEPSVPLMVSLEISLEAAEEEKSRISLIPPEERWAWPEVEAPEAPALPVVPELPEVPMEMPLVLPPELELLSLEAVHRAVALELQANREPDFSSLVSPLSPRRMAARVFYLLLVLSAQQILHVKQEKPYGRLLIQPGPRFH
Kind of assay: co-IP; HEK293 cells co-transfected with FLAG3-STAG3 (wild type or mutant) and REC8-EGFP or SMC1A-HA; nocodazole 0.2 ug/ml after 36 h for prometaphase arrest, RIPA lysis 12 h later; Dynabeads Protein G; blots with anti-FLAG, anti-GFP, anti-HA; the precipitating antibody is not stated.

The target of assay [2] is T2, SMC1A-HA (UniProt Q14683).
T2 sequence: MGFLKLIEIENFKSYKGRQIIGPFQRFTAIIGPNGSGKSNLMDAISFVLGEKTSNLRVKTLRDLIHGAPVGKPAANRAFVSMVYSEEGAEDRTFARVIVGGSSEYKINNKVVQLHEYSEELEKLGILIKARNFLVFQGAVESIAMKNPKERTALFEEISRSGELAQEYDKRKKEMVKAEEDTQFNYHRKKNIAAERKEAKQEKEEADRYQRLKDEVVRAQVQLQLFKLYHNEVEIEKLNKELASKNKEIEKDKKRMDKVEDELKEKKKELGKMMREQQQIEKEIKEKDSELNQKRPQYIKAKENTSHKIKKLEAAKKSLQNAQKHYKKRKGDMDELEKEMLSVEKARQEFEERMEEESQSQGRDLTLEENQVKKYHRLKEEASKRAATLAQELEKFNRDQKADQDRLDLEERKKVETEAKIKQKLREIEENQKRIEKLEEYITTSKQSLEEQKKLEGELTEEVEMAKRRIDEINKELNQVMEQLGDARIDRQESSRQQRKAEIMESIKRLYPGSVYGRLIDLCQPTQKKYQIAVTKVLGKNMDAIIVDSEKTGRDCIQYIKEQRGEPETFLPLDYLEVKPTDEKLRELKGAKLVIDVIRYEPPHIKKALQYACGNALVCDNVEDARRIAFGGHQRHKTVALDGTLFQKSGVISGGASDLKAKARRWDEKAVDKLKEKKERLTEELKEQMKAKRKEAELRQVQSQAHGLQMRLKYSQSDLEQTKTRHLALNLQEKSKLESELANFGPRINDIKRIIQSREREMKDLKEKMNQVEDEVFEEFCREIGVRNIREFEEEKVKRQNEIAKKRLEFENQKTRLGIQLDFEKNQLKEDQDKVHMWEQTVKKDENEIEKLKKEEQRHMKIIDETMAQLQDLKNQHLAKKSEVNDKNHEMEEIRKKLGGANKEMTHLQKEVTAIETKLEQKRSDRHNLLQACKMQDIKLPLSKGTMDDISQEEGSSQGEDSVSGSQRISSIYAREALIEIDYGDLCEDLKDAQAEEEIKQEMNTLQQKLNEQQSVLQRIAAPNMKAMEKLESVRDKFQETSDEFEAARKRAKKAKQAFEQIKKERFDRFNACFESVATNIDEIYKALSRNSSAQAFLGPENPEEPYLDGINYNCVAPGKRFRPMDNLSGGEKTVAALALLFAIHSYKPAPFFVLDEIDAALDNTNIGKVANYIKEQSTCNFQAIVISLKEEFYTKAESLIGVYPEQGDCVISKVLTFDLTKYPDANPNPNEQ
The assay is described as above.

B1: FLAG3-STAG3-WT (wild-type stromal antigen 3) (protein, UniProt Q9UJ98-1 1-1225)
chain: MSSPLQRAVGDTKRALSASSSSSASLPFDDRDSNHTSEGNGDSLLADEDTDFEDSLNRNVKKRAAKRPPKTTPVAKHPKKGSRVVHRHSRKQSEPPANDLFNAVKAAKSDMQSLVDEWLDSYKQDQDAGFLELVNFFIQSCGCKGIVTPEMFKKMSNSEIIQHLTEQFNEDSGDYPLIAPGPSWKKFQGSFCEFVRTLVCQCQYSLLYDGFPMDDLISLLTGLSDSQVRAFRHTSTLAAMKLMTSLVKVALQLSVHQDNNQRQYEAERNKGPGQRAPERLESLLEKRKELQEHQEEIEGMMNALFRGVFVHRYRDVLPEIRAICIEEIGCWMQSYSTSFLTDSYLKYIGWTLHDKHREVRLKCVKALKGLYGNRDLTTRLELFTSRFKDRMVSMVMDREYDVAVEAVRLLILILKNMEGVLTDADCESVYPVVYASHRGLASAAGEFLYWKLFYPECEIRMMGGREQRQSPGAQRTFFQLLLSFFVESELHDHAAYLVDSLWDCAGARLKDWEGLTSLLLEKDQNLGDVQESTLIEILVSSARQASEGHPPVGRVTGRKGLTSKERKTQADDRVKLTEHLIPLLPQLLAKFSADAEKVTPLLQLLSCFDLHIYCTGRLEKHLELFLQQLQEVVVKHAEPAVLEAGAHALYLLCNPEFTFFSRADFARSQLVDLLTDRFQQELEELLQSSFLDEDEVYNLAATLKRLSAFYNTHDLTRWELYEPCCQLLQKAVDTGEVPHQVILPALTLVYFSILWTLTHISKSDASQKQLSSLRDRMVAFCELCQSCLSDVDTEIQEQAFVLLSDLLLIFSPQMIVGGRDFLRPLVFFPEATLQSELASFLMDHVFIQPGDLGSGDSQEDHLQIERLHQRRRLLAGFCKLLLYGVLEMDAASDVFKHYNKFYNDYGDIIKETLTRARQIDRSHCSRILLLSLKQLYTELLQEHGPQGLNELPAFIEMRDLARRFALSFGPQQLQNRDLVVMLHKEGIQFSLSELPPAGSSNQPPNLAFLELLSEFSPRLFHQDKQLLLSYLEKCLQHVSQAPGHPWGPVTTYCHSLSPVENTAETSPQVLPSSKRRRVEGPAKPNREDVSSSQEESLQLNSIPPTPTLTSTAVKSRQPLWGLKEMEEEDGSELDFAQGQPVAGTERSRFLGPQYFQTPHNPSGPGLGNQLMRLSLMEEDEEEELEIQDESNEERQDTDMQASSYSSTSERGLDLLDSTELDIEDF
B1: the binding entry in assay [1] and in assay [2] was “binds” throughout.

B2: FLAG3-STAG3-p.293_295del (protein, UniProt Q9UJ98-1 1-1225)
chain: MSSPLQRAVGDTKRALSASSSSSASLPFDDRDSNHTSEGNGDSLLADEDTDFEDSLNRNVKKRAAKRPPKTTPVAKHPKKGSRVVHRHSRKQSEPPANDLFNAVKAAKSDMQSLVDEWLDSYKQDQDAGFLELVNFFIQSCGCKGIVTPEMFKKMSNSEIIQHLTEQFNEDSGDYPLIAPGPSWKKFQGSFCEFVRTLVCQCQYSLLYDGFPMDDLISLLTGLSDSQVRAFRHTSTLAAMKLMTSLVKVALQLSVHQDNNQRQYEAERNKGPGQRAPERLESLLEKRKELQEEIEGMMNALFRGVFVHRYRDVLPEIRAICIEEIGCWMQSYSTSFLTDSYLKYIGWTLHDKHREVRLKCVKALKGLYGNRDLTTRLELFTSRFKDRMVSMVMDREYDVAVEAVRLLILILKNMEGVLTDADCESVYPVVYASHRGLASAAGEFLYWKLFYPECEIRMMGGREQRQSPGAQRTFFQLLLSFFVESELHDHAAYLVDSLWDCAGARLKDWEGLTSLLLEKDQNLGDVQESTLIEILVSSARQASEGHPPVGRVTGRKGLTSKERKTQADDRVKLTEHLIPLLPQLLAKFSADAEKVTPLLQLLSCFDLHIYCTGRLEKHLELFLQQLQEVVVKHAEPAVLEAGAHALYLLCNPEFTFFSRADFARSQLVDLLTDRFQQELEELLQSSFLDEDEVYNLAATLKRLSAFYNTHDLTRWELYEPCCQLLQKAVDTGEVPHQVILPALTLVYFSILWTLTHISKSDASQKQLSSLRDRMVAFCELCQSCLSDVDTEIQEQAFVLLSDLLLIFSPQMIVGGRDFLRPLVFFPEATLQSELASFLMDHVFIQPGDLGSGDSQEDHLQIERLHQRRRLLAGFCKLLLYGVLEMDAASDVFKHYNKFYNDYGDIIKETLTRARQIDRSHCSRILLLSLKQLYTELLQEHGPQGLNELPAFIEMRDLARRFALSFGPQQLQNRDLVVMLHKEGIQFSLSELPPAGSSNQPPNLAFLELLSEFSPRLFHQDKQLLLSYLEKCLQHVSQAPGHPWGPVTTYCHSLSPVENTAETSPQVLPSSKRRRVEGPAKPNREDVSSSQEESLQLNSIPPTPTLTSTAVKSRQPLWGLKEMEEEDGSELDFAQGQPVAGTERSRFLGPQYFQTPHNPSGPGLGNQLMRLSLMEEDEEEELEIQDESNEERQDTDMQASSYSSTSERGLDLLDSTELDIEDF
With B2, the binding result in assay [1] and in assay [2] was “no binding” each time.
